Results are given in words; binding and its absence hold for the method and conditions named. In cells and extracts the contact can be indirect. A yes stands for co-enrichment or nearness to the bait. Other partners may have been found.
Biological target: Flag-PKM2 (pyruvate kinase M2 isoform), expressed in U251 cells (UniProt P14618)
Assay: affinity purification with mass spectrometry; Flag-PKM2 immunoprecipitated with Flag beads from U251 cells treated with or without etoposide for 1 h; mass spectrometry of PKM2-associated proteins

By UniProt entry, the sequences of proteins in these tests, tags left out.
UniProt P14618: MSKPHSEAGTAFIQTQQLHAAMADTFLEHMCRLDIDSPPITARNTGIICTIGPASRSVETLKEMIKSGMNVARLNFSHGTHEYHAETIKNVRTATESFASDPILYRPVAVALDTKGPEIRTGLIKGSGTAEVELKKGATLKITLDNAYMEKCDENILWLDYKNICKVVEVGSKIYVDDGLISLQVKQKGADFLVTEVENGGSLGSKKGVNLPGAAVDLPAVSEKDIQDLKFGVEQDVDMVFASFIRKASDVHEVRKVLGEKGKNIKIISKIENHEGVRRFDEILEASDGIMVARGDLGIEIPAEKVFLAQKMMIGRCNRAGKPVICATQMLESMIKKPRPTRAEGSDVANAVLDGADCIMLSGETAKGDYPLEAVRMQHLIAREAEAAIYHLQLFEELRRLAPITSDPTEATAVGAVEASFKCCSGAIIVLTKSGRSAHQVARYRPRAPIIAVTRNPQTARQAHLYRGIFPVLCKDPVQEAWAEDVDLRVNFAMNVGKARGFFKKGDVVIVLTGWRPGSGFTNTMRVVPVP
UniProt Q9Y5B9: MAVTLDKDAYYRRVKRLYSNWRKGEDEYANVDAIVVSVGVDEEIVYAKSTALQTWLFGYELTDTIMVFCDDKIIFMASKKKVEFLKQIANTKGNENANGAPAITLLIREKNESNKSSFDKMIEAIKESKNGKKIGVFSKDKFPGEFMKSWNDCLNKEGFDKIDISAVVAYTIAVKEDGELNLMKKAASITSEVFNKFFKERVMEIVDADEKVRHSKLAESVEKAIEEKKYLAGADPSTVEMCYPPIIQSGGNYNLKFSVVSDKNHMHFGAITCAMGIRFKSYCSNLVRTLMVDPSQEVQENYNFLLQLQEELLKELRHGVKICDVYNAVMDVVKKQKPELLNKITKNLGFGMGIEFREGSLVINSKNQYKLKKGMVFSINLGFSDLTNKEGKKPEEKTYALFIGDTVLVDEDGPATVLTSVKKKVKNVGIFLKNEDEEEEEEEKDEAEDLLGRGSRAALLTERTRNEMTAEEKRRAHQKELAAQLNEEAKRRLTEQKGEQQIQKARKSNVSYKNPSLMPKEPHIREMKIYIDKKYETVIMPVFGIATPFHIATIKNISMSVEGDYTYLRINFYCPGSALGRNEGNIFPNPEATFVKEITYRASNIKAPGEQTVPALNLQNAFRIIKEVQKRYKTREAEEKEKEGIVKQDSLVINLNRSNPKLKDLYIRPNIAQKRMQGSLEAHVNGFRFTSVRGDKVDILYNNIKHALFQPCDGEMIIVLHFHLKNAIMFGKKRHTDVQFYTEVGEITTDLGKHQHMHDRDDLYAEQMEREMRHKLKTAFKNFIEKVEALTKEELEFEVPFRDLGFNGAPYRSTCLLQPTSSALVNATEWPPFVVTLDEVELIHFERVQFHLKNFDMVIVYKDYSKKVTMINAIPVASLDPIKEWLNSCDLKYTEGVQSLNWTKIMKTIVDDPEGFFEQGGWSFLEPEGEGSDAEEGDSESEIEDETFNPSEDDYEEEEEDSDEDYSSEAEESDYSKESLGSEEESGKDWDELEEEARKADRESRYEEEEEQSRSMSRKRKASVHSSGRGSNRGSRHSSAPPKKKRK

binding: binds
Substance: SPT16, subunit of the FACT complex, endogenous in U251 cells (from UniProt Q9Y5B9 1-1047)
